# Values from PubChem BioAssay AID743121 (NCATS, 2013)
# Test: 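Genes whose silencing strengthens cell killing by camptothecin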 (primary screen)
# Cell system: MDA-MB-231 cells, a human breast cancer line
# Reagents: single siRNA against human genes, 20 nM siRNA (0.8 pmol per well)
# Timing: 120 h (drug added 48 h after transfection, read 72 h later)
# Conditions: camptothecin 20 nM (about EC30) for 72 h; vehicle 0.1% DMSO in parallel plates
# Detection: 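CellTiter-Glo ATP signal, scaled to control siRNA as percent viability; sensitisation given as log2 of untreated divided by camptothecin-treated viability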
# Scale: log2 vehicle/camptothecin viability: higher = stronger sensitisation to camptothecin; viability with camptothecin and viability without drug: higher = more viable cells
# Hit rule: 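Each gene scored by redundant siRNA activity (RSA) over its individual siRNA ratios; a gene is called active at p < 0.001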
# The deposit covers about 26,000 reagents; shown is an unselected part. 167 of them (0.63%) count as active. 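Calls are per gene from RSA p-values that are not deposited; an individual active-marked siRNA can sensitise only weakly.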 Entries without a mark were called inactive.
gene,PubChem SID,log2 vehicle/camptothecin viability,viability with camptothecin (% of control),viability without drug (% of control)
CD36,SID164357237,-0.311,112,90.4
CD36,SID164357240,-0.0418,44.2,42.9
CD36,SID164357241,-0.154,110,99.1
CD36,SID164357243,-0.376,112,86
RNF19A,SID164457612,-0.284,59.4,48.8
RNF19A,SID164457613,-0.636,71.1,45.7
RNF19A,SID164457614,-0.057,101,97.3
RNF19A,SID164457616,1.06,31.5,65.8
B2M,SID164354937,-0.619,60.9,39.7
B2M,SID164354938,-0.00284,23.9,23.9
B2M,SID164354939,-0.533,77.8,53.7
B2M,SID164354941,-0.397,107,81.1
AQP9,SID164353885,-0.14,93.4,84.8
AQP9,SID164353886,-0.0385,61.1,59.5
AQP9,SID164353890,-0.148,101,90.8
AQP9,SID164353891,0.479,54.2,75.5
ADAD1,SID164569903,-0.118,116,107
ADAD1,SID164569905,-0.114,91.3,84.4
ADAD1,SID164569906,0.563,27.3,40.3
ADAD1,SID164569907,-0.242,126,107
IL2,SID164371209,-0.453,76.4,55.8
IL2,SID164371212,-0.00228,99.8,99.7
IL2,SID164371213,-0.259,68.1,56.9
PPIL2,SID164449566,0.781,47.1,80.8
PPIL2,SID164449567,-0.0411,68.6,66.7
PPIL2,SID164449572,0.615,42.5,65.1
PPIL2,SID164449573,-0.267,52.6,43.7
DOK6,SID164592125,-0.527,89.7,62.2
DOK6,SID164592126,-0.381,64.8,49.8
DOK6,SID164592128,0.542,59,85.9
ING5,SID164544132,-0.0377,101,98.7
ING5,SID164544133,1.01,30.8,62.1
ING5,SID174316005,-0.564,74,50
AHCYL2,SID164447671,0.115,87.3,94.6
AHCYL2,SID164447672,-0.156,87.7,78.7
AHCYL2,SID164447674,-0.613,111,72.3
BIRC8,SID164559334,0.419,56.1,75
BIRC8,SID164559335,-0.0744,87.6,83.2
BIRC8,SID164559336,-0.435,134,98.9
BIRC8,SID164559338,-0.534,66.5,45.9
NOP16,SID164474146,-0.384,97.2,74.5
NOP16,SID164474147,-0.596,81.9,54.2
WTAP,SID164404745,-0.747,20.6,12.3
WTAP,SID164404746,0.0697,57.4,60.2
WTAP,SID164404750,1.16,25,55.8
CCR2,SID174315906,-0.177,114,101
CCR2,SID174315907,-0.274,108,89.6
CCR2,SID174315957,-0.686,148,91.8
CCR2,SID174315984,-0.289,106,86.7
AKR1D1,SID164389699,-0.152,55.2,49.7
AKR1D1,SID164389700,0.106,79.4,85.4
AKR1D1,SID164389701,0.133,87.2,95.6
AKR1D1,SID164389702,-0.0162,64.4,63.7
METTL13,SID164474659,-0.175,68.8,60.9
METTL13,SID164474660,-0.89,31.7,17.1
METTL13,SID164474663,-0.0694,100,95.3
METTL13,SID164474665,0.124,26.8,29.2
LORICRIN,SID164374076,-0.377,121,93
LORICRIN,SID164374077,-0.163,90,80.4
LORICRIN,SID164374078,-0.0962,104,97.7
LORICRIN,SID164374079,-0.126,127,117
CCNH,SID164356959,0.00438,70.1,70.3
CCNH,SID164356960,-0.427,53.6,39.9
CCNH,SID164356965,-0.268,111,91.8
SMARCA2,SID164388794,-0.208,74.6,64.6
SMARCA2,SID164388795,-0.271,52.3,43.3
SMARCA2,SID164388796,-0.158,90,80.7
SMARCA2,SID164388799,-4.97,92.6,2.95

11 neighbouring reagents already listed:
gene,PubChem SID,log2 vehicle/camptothecin viability,viability with camptothecin (% of control),viability without drug (% of control)
BIRC8,SID164559336,-0.435,134,98.9
BIRC8,SID164559338,-0.534,66.5,45.9
NOP16,SID164474146,-0.384,97.2,74.5
NOP16,SID164474147,-0.596,81.9,54.2
WTAP,SID164404745,-0.747,20.6,12.3
WTAP,SID164404746,0.0697,57.4,60.2
WTAP,SID164404750,1.16,25,55.8
CCR2,SID174315906,-0.177,114,101
CCR2,SID174315907,-0.274,108,89.6
CCR2,SID174315957,-0.686,148,91.8
CCR2,SID174315984,-0.289,106,86.7
